Measured data: PubChem BioAssay AID504784 (Drosophila RNAi Screening Center, 2011)
In all, the deposit lists about 17,000 reagents; shown is an unselected part of those with a known target gene and a result. 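Each column is one replicate's B-score; the combined score over replicates was not deposited, so single values may mislead.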 A plus sign joins genes that one reagent is predicted to hit. Reagent sequences are not shown.

Aim: 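Search for regulators of lipid droplet storage in oleate-fed fly cells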 (primary screen)
System: Drosophila Kc167 embryonic cells
Reagents: long dsRNA against Drosophila genes, about 250 ng dsRNA per well
Duration: 4 days
Treatment: cells fed 400 µM oleic acid bound to BSA
Measured: 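Cells imaged and segmented; ratio of lipid droplet area to nuclear area, log-transformed, then normalised as a B-score over the screen; higher means more stored lipid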
Scale: droplet/nuclear area B-score: higher = more stored lipid (overstorage)

gene knocked down | amplicon | droplet/nuclear area B-score, replicate 1 | droplet/nuclear area B-score, replicate 2 | droplet/nuclear area B-score, replicate 3
Pp4-19C (Protein phosphatase 19C) | DRSC20559 | -2.28 | -0.976 | –
Pp4-19C (Protein phosphatase 19C) | DRSC21251 | -0.111 | -3.03 | –
Pp4-19C (Protein phosphatase 19C) | DRSC23319 | 0.706 | -0.167 | –
Sr-CIV (Scavenger receptor class C, type IV) | DRSC00575 | 0.723 | -1.08 | –
Pgam5 (Phosphoglycerate mutase 5) | DRSC18551 | -0.132 | -0.681 | –
HP1e (Heterochromatin Protein 1e) | DRSC16379 | 0.135 | -0.536 | –
tld (tolloid) | DRSC17084 | 3.47 | -0.161 | –
CG31898 | DRSC01019 | 0.0663 | -0.111 | –
magu | DRSC06832 | 1.21 | -0.487 | –
Fkbp39 (FK506-binding protein 39kD) | DRSC16667 | -0.844 | 0.801 | –
ZnT86D (Zinc transporter 86D) | DRSC16091 | -0.308 | 1.54 | –
Vha100-3 (Vacuolar H[+] ATPase 100kD subunit 3) | DRSC05760 | -0.415 | 0.0122 | –
CG6230 | DRSC01989 | -0.974 | -1.27 | –
mid (midline) | DRSC02977 | 0.598 | 1.53 | 0.38
mid (midline) | DRSC21493 | 1.54 | 0.818 | –
CG6834 | DRSC16125 | -0.213 | -0.315 | –
CG10365 | DRSC14234 | 1.27 | -1.61 | –
Acox57D-d (acyl-Coenzyme A oxidase at 57D distal) | DRSC04561 | 0.124 | 0.484 | –
Tasp1 (Taspase 1) | DRSC10495 | 0.206 | 0.64 | -0.35
betaTub85D (beta-Tubulin at 85D) | DRSC16910 | -1.05 | -0.0157 | –
Mulk (Multi-substrate lipid kinase) | DRSC02658 | 0.714 | -0.829 | –
robl37BC | DRSC02472 | 0.696 | 0.86 | –
Efhc1.1 (EF-hand domain containing 1.1) | DRSC20135 | -0.68 | -0.783 | –
CG12986 | DRSC19506 | 0.611 | 3.44 | –
CG30159 | DRSC04981 | -0.339 | -0.866 | –
cher (cheerio) | DRSC16924 | 0.115 | -0.755 | –
CG4734 | DRSC06885 | 0.463 | -2.03 | –
CG4734 | DRSC22072 | 0.242 | 0.76 | –
CG12171 | DRSC12200 | -0.278 | -0.0937 | –
CG8051 | DRSC20077 | -0.596 | 0.167 | –
foi (fear-of-intimacy) | DRSC10719 | 0.000308 | 2.59 | –
mRpS18A (mitochondrial ribosomal protein S18A) | DRSC14369 | 4.45 | 4.89 | –
XNP | DRSC15594 | 0.942 | -0.688 | –
odd (odd skipped) | DRSC00832 | 0.799 | 0.649 | –
odd (odd skipped) | DRSC23024 | -0.902 | -0.277 | –

Next part, starting with the last 5 of the part before.
gene knocked down | amplicon | droplet/nuclear area B-score, replicate 1 | droplet/nuclear area B-score, replicate 2 | droplet/nuclear area B-score, replicate 3
foi (fear-of-intimacy) | DRSC10719 | 0.000308 | 2.59 | –
mRpS18A (mitochondrial ribosomal protein S18A) | DRSC14369 | 4.45 | 4.89 | –
XNP | DRSC15594 | 0.942 | -0.688 | –
odd (odd skipped) | DRSC00832 | 0.799 | 0.649 | –
odd (odd skipped) | DRSC23024 | -0.902 | -0.277 | –
sax (saxophone) | DRSC07675 | -0.669 | -1.51 | –
Rab3GAP1 (RAB3 GTPase activating protein subunit 1) | DRSC00291 | 4.12 | -0.527 | –
Rab3GAP1 (RAB3 GTPase activating protein subunit 1) | DRSC00703 | 0.685 | 0.0347 | –
CG6592 | DRSC10669 | 0.554 | 1.69 | –
Ras64B (Ras oncogene at 64B) | DRSC08689 | -0.982 | 1.53 | –
Naglu (N-acetyl-alpha-glucosaminidase) | DRSC02267 | -2.05 | -0.873 | –
CG11030 | DRSC02120 | -1.67 | 0.327 | –
CG14669 | DRSC12255 | -1.75 | -0.967 | –
CG5968 | DRSC02916 | -0.148 | 0.87 | –
CG18748 | DRSC15385 | 1.7 | 1.37 | –
Ir75b (Ionotropic receptor 75b) | DRSC10189 | -0.389 | 0.135 | –
CG10317 | DRSC14229 | 0.421 | -0.174 | –
lncRNA:CR30009 (long non-coding RNA:CR30009) | DRSC22952 | 1.13 | -0.954 | –
CG14306 (retired record) | DRSC14785 | 2.03 | 2.13 | –
CG12299 | DRSC02158 | -3.19 | – | –
Ssadh (Succinic semialdehyde dehydrogenase) | DRSC15621 | -2.62 | 0.681 | –
CG17362 | DRSC10267 | -0.408 | -1.1 | –
CG18094 | DRSC02655 | 0.822 | 1.34 | –
Act88F (Actin 88F) | DRSC14105 | -1.24 | -0.0336 | –
CG4854 | DRSC15663 | 0.525 | 0.923 | –
CG9287 | DRSC03186 | -0.238 | 0.136 | 1.31
CG9287 | DRSC22790 | 1.71 | 0.118 | –
CG3565 | DRSC04389 | -0.321 | -0.233 | –
Parp1 (Poly-(ADP-ribose) polymerase 1) | DRSC07725 | 0.723 | 0.998 | –
Parp1 (Poly-(ADP-ribose) polymerase 1) | DRSC07778 | 1.14 | 1.66 | –
Parp1 (Poly-(ADP-ribose) polymerase 1) | DRSC07780 | 0.445 | -0.395 | –
robl (roadblock) | DRSC07674 | -0.339 | 2.32 | –
CG10514 | DRSC14249 | 0.923 | 0.832 | –
Obp58d (Odorant-binding protein 58d) | DRSC04162 | 0.553 | -0.54 | –
Gs2 (Glutamine synthetase 2) | DRSC20250 | -0.071 | -0.091 | 0.354
ca (claret) | DRSC15305 | 1.37 | – | –
ca (claret) | DRSC15306 | 0.703 | -1.46 | –
ca (claret) | DRSC16314 | 1.4 | 0.942 | –
Sec10 (Secretory 10) | DRSC17053 | 0.224 | 1.08 | –
maca | DRSC15738 | 2.16 | 4.21 | –
CG31534 (retired record) | DRSC12141 | 0.0288 | 1.1 | 0.00792
CG31534 (retired record) | DRSC12289 | 0.179 | 1.07 | –
ko (knockout) | DRSC11893 | -0.045 | -0.832 | –
CG31549 | DRSC21688 | 1.09 | 0.754 | –
CG3815 | DRSC18324 | -1.46 | -0.438 | -3.33
park + Targ3 | DRSC11617 | -0.536 | 1.86 | 1.6
Lipt2 (Lipoyl(octanoyl) transferase 2) | DRSC12338 | -0.47 | 1.46 | 0.151
Lipt2 (Lipoyl(octanoyl) transferase 2) | DRSC22610 | 0.0466 | 0.0187 | –
Svip (small VCP interacting protein) | DRSC08982 | -0.628 | 0.424 | –
CG18324 | DRSC06721 | -0.735 | 0.0531 | –
CG1075 (retired record) | DRSC12144 | -1.43 | 1.67 | –
CG34286 | DRSC21790 | 0.624 | 0.522 | –
Rab2 | DRSC05017 | -0.606 | -0.646 | –
egr (eiger) | DRSC06233 | 0.178 | -0.293 | –
Pur-alpha (Purine-rich binding protein-alpha) | DRSC17166 | 0.959 | -0.688 | –
sdk (sidekick) | DRSC18831 | -0.227 | 3.34 | –
puml (pummelig) | DRSC06793 | 1.77 | 0.507 | –
CG10587 | DRSC11627 | -1.76 | -0.0498 | –
Fkbp59 (FK506-binding protein 59kD) | DRSC03323 | 0.721 | -2.04 | –
CG15239 | DRSC17972 | 0.282 | 0.684 | –
Naam (Nicotinamide amidase) | DRSC16252 | -0.0321 | 0.627 | –
CrzR (Corazonin receptor) | DRSC09781 | 0.694 | 0.747 | –
CrzR (Corazonin receptor) | DRSC09782 | 2.13 | 0.378 | –
sad (shadow) | DRSC16630 | 2.94 | 1.44 | –
MED16 (Mediator complex subunit 16) | DRSC04506 | 1.53 | 0.123 | –
Psa (Puromycin sensitive aminopeptidase) | DRSC08152 | -1.88 | 0.1 | –
Tsp42A (Tetraspanin 42A) | DRSC04862 | -0.109 | -0.0671 | –
Gat (GABA transporter) | DRSC17144 | -0.637 | -2.12 | –
CG14260 | DRSC14755 | 0.408 | -0.725 | –
to (takeout) | DRSC17086 | 0.52 | 1.55 | –
Gr77a (Gustatory receptor 77a) | DRSC11446 | 0.138 | -1.51 | –
MtnB (Metallothionein B) | DRSC22744 | 0.985 | 0.568 | –
CG7222 | DRSC07019 | -0.131 | -0.496 | –
LTV1 (LTV1 ribosome biogenesis factor) | DRSC05951 | 0.49 | 0.273 | –
wmd (wing morphogenesis defect) | DRSC04436 | 1.98 | 2.14 | –
